Reference: PubChem BioAssay AID597 (National Center for Advancing Translational Sciences (NCATS), 2007)
Hit rate of the full screen: of about 68,000 compounds, about 60 (0.09%) were called active. The inconclusive results got no clear call from the source; some entries with a clear call stand among them for comparison. Calls come from the whole dose curve; as a rule, active = well fitted curve in the direction sought with a large enough effect; inconclusive = small, poorly fitted or top-dose-only effect; inactive = flat fitted curve, though single readings scatter. Where the call is inconclusive, the potency comes from a doubtful curve fit.

Assay: qHTS Assay for Epigenetic Modulators
Conditions: mouse C127i GFP locus derepression, cytometry, 30 h; series mostly up to 46.1 µM
Summary of the method: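 Read-out is the number of GFP-positive cells, scored as fluorescent objects 20 to 120 um wide, reflecting derepression of a silenced CMV-GFP reporter in murine C127i cells after 30 h compound exposure at 37 C.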

| SMILES | Potency |
| --- | --- |
| OCCCCNc1cccc2ccccc12 | inactive |
| CN(C)c1ccc(N/C=C/C(=O)c2ccc(F)cc2)cc1 | inconclusive: 25.1 µM [single point] |
| Cc1ccnc(NC(=O)CCCOc2cc(=O)n(C)c3ccccc23)c1 | inconclusive: 25.1 µM [single point] |
| Cc1nc2ccccc2nc1OCC(=O)NCc1ccc2c(c1)OCO2 | inconclusive: 31.6 µM [single point] |
| CN1c2ccccc2C(C)(C)C12C=Cc1cc(O)ccc1O2 (stereo unspecified) | inconclusive: 31.6 µM [single point] |
| Nc1nc(Sc2ccc([N+](=O)[O-])c3nonc23)c2[nH]cnc2n1 | inconclusive: 5.01 µM [single point] |
| COc1ccc2c(c1)c1c(C)c3cnccc3c(C)c1n2CCCN | inconclusive: 1 µM [single point] |
| Fc1ccc2nc(Nc3nc4c(s3)CCCC4)sc2c1 | inconclusive: 31.6 µM [single point] |
| Nc1ccc2c3c(cccc13)CC2 | active: 12.6 µM |
| Cc1ccc(NC(=O)CCn2cnc3ccccc3c2=O)cc1Cl | inactive |
| Cc1cc(SCNC(=O)c2ccccc2)ncn1 | inconclusive: 25.1 µM [single point] |
| COc1ccc(C2C(C#N)=C(N)N3C(=C2C#N)Sc2ccccc23)cc1 (stereo unspecified) | active: 12.6 µM |
| Cn1c(-c2ccc3c(c2)OCO3)cnc1NCc1cccc(Cl)c1 | inactive |
| CC(C)C[C@H]1C(=O)N2CCC[C@H]2[C@]2(O)O[C@](NC(=O)[C@@H]3C=C4c5cccc6[nH]c(Br)c(c56)CC4N(C)C3)(C(C)C)C(=O)N12 (stereo partly specified) | inconclusive: 0.794 µM [partial curve] |
| COc1ccc2c(C)nc(Nc3nc(C)cc(=O)[nH]3)nc2c1 | inconclusive: 25.1 µM [single point] |
| Cc1ccc(CNc2ccc3c(c2)OCO3)cc1 | inconclusive: 31.6 µM [single point] |
| CC1(C)CC(=O)C2=C(C1)OC(N)=C(C#N)C2C#Cc1ccccc1 (stereo unspecified) | inconclusive: 31.6 µM [single point] |
| COc1ccc(C(=O)Oc2c(CN3CCOCC3)cc(Cl)c3cccnc23)cc1 | active: 7.94 µM |
| Cc1ccccc1-c1ccc2ncnc(NCCN3CCOCC3)c2c1 | inconclusive: 1.26 µM [single point] |
| NCCC[C@@](N)(C(=O)O)C(F)F | inactive |
| Cc1ccc(S(=O)(=O)c2nc(C(C)(C)C)oc2N2CCOCC2)cc1 | inconclusive: 5.01 µM [single point] |

Nothing new here: an excerpt of the list.

| SMILES | Potency |
| --- | --- |
| COc1ccc2c(C)nc(Nc3nc(C)cc(=O)[nH]3)nc2c1 | inconclusive: 25.1 µM [single point] |
| Cc1ccc(CNc2ccc3c(c2)OCO3)cc1 | inconclusive: 31.6 µM [single point] |
